Some entries share one result that the patent states for a list of compounds.
system: Human-derived dental pulp stem cell lines (hDPSCs); assay: Alizarin Red S staining of osteoblast differentiation / biomineralization in hDPSCs; assay type: cell-based; conditions: 1 μM, 2 weeks, fixed with 4% PFA (FIGS. 3A, 3C)

SMILES | biomineralization effect (Alizarin Red S staining)
COc1ccc(C2=N[C@@H](c3ccc(Cl)cc3)[C@@H](c3ccc(Cl)cc3)N2C(=O)N2CCN(CC(=O)NCCCCc3ccc(COc4cccc5c4C(=O)N(C4CCC(=O)NC4=O)C5=O)cc3)C(=O)C2)c(OC(C)C)c1 (relative stereo) [Compound 19, 2-(4-(cis-4,5-bis(4-chlorophenyl)-2-(2-isopropoxy-4-methoxyphenyl)-4,5-dihydro-1H-imidazole-1-carbonyl)-2-oxopiperazin-1-yl)-N-(4-(4-(((2-(2,6-dioxopiperidin-3-yl)-1,3-dioxoisoindolin-4-yl)oxy)methyl)phenyl)butyl)acetamide] | biomineralization effect
COc1ccc(C2=N[C@@H](c3ccc(Cl)cc3)[C@@H](c3ccc(Cl)cc3)N2C(=O)N2CCN(CC(=O)NCCCCCCCCNc3cccc4c3C(=O)N(C3CCC(=O)NC3=O)C4=O)C(=O)C2)c(OC(C)C)c1 (relative stereo) [Compound 17, 2-(4-(cis-4,5-bis(4-chlorophenyl)-2-(2-isopropoxy-4-methoxyphenyl)-4,5-dihydro-1H-imidazole-1-carbonyl)-2-oxopiperazin-1-yl)-N-(8-((2-(2,6-dioxopiperidin-3-yl)-1,3-dioxoisoindolin-4-yl)amino)octyl)acetamide] | biomineralization effect
COc1ccc(C2=N[C@@H](c3ccc(Cl)cc3)[C@@H](c3ccc(Cl)cc3)N2C(=O)N2CCN(CC(=O)NCCOCc3ccc(COc4cccc5c4C(=O)N(C4CCC(=O)NC4=O)C5=O)cc3)C(=O)C2)c(OC(C)C)c1 (relative stereo) [Compound 21, 2-(4-(cis-4,5-bis(4-chlorophenyl)-2-(2-isopropoxy-4-methoxyphenyl)-4,5-dihydro-1H-imidazole-1-carbonyl)-2-oxopiperazin-1-yl)-N-(2-((4-(((2-(2,6-dioxopiperidin-3-yl)-1,3-dioxoisoindolin-4-yl)oxy)methyl)benzyl)oxy)ethyl)acetamide] | biomineralization effect
COc1ccc(C2=N[C@@H](c3ccc(Cl)cc3)[C@@H](c3ccc(Cl)cc3)N2C(=O)N2CCN(CC(=O)NCCCCCCCCCc3cccc4c3C(=O)N(C3CCC(=O)NC3=O)C4=O)C(=O)C2)c(OC(C)C)c1 (relative stereo) [Compound 20, 2-(4-(cis-4,5-bis(4-chlorophenyl)-2-(2-isopropoxy-4-methoxyphenyl)-4,5-dihydro-1H-imidazole-1-carbonyl)-2-oxopiperazin-1-yl)-N-(9-(2-(2,6-dioxopiperidin-3-yl)-1,3-dioxoisoindolin-4-yl)nonyl)acetamide] | biomineralization effect
COc1ccc(C2=N[C@@H](c3ccc(Cl)cc3)[C@@H](c3ccc(Cl)cc3)N2C(=O)N2CCN(CC(=O)NCCC#Cc3ccc(COc4cccc5c4C(=O)N(C4CCC(=O)NC4=O)C5=O)cc3)C(=O)C2)c(OC(C)C)c1 (relative stereo) [Compound 18, 2-(4-(cis-4,5-bis(4-chlorophenyl)-2-(2-isopropoxy-4-methoxyphenyl)-4,5-dihydro-1H-imidazole-1-carbonyl)-2-oxopiperazin-1-yl)-N-(4-(4-(((2-(2,6-dioxopiperidin-3-yl)-1,3-dioxoisoindolin-4-yl)oxy)methyl)phenyl)but-3-yn-1-yl)acetamide] | biomineralization effect
